# Experimental data as given in PubChem BioAssay AID192 (DTP/NCI, 2004).
# The list is a part of this screen's results and no random one: it gathers tests that were run many times, whatever their T/C, doses with no T/C, and many T/C values between a quarter and a half above the control. Other doses and runs of a compound stand elsewhere. T/C: endpoint of the treated group in % of that of the vehicle group. Some entries give survivors of the animals treated and no T/C: the source files T/C as zero there, which appears to mark a toxic dose or a test without result, not a measured value. Some doses without a T/C left all or most animals alive at the check, yet need not have been tolerated: survival well below the control is almost never listed, so the zero probably covers shortened survival too. Counts of survivors are from the toxicity check (mostly the fifth day) where no day follows; animals may have died later. Schedule codes are those of the source, taken here to give the interval after Q, in days (D) or hours (H), and the number of doses after X. Some doses were run more than once; the values are given in rising order. For survival time, this PubChem deposit counts one and a half times the control or more as active, and values a quarter to a half above the control carry no call in these data; other NCI protocols may use other cut-offs. Signs of the kind (2×) give the number of equal values in this list.
# System: BDF1 mice, B16 melanoma ip, median survival T/C
# Assay: NCI In Vivo Anticancer Drug Screen. Data for tumor model B16 Melanoma (intraperitoneal) in B6D2F1 (BDF1) mice
# Conditions: T/C endpoint: median survival time, higher T/C = longer survival
# Procedure: The antitumor activity of compounds was measured in mice bearing transplantable tumors. Survival or tumor size were measured and the results are expressed as the measurement made in the treated group (T) divided by the measurement made in the vehicle treated control group (C). The tumor model used in this assay is B16 Melanoma (intraperitoneal) in B6D2F1 (BDF1) mice
# [1] = dose: 50.0 mg/kg/injection, schedule: Q01DX009 (ip), vehicle: water
# [2] = dose: 100.0 mg/kg/injection, schedule: Q01DX009 (ip), vehicle: water
# [3] = dose: 50.0 mg/kg/injection, schedule: Q01DX009 (ip), vehicle: saline with Tween-80
# [4] = dose: 100.0 mg/kg/injection, schedule: Q01DX009 (ip), vehicle: saline
# [5] = dose: 200.0 mg/kg/injection, schedule: Q01DX009 (ip), vehicle: saline
# [6] = dose: 400.0 mg/kg/injection, schedule: Q01DX009 (ip), vehicle: saline
# [7] = dose: 100.0 mg/kg/injection, schedule: Q01DX009 (ip), vehicle: Klucel (hydroxypropylcellulose) (HPC)
# [8] = dose: 8.0 mg/kg/injection, schedule: Q01DX001 (ip), vehicle: water
# [9] = dose: 64.0 mg/kg/injection, schedule: Q01DX009 (ip), vehicle: water
compound,measurement,setting,value
NC(CNC(=O)CBr)C(=O)O (stereo unspecified),survivor count,[1],8 of 10
same,survivor count,[2],0 of 10
O=[N+]([O-])c1ccc(/C=C2/c3cc(Cl)ccc3-c3c(Cl)cc(Cl)cc32)cc1,survivor count,"dose: 12.5 mg/kg/injection, schedule: Q01DX009 (ip), vehicle: saline with Tween-80",6 of 6
same,survivor count,[3],6 of 6
same,survivor count,[4],6 of 6
same,survivor count,[5],6 of 6
same,survivor count,[6],6 of 6
same,survivor count,"dose: 800.0 mg/kg/injection, schedule: Q01DX009 (ip), vehicle: saline",5 of 6
O=C(NN=C1CCCCC1)c1ccccc1,survivor count,"dose: 150.0 mg/kg/injection, schedule: Q01DX009 (ip), vehicle: saline with Tween-80",2 of 6
same,survivor count,"dose: 300.0 mg/kg/injection, schedule: Q01DX009 (ip), vehicle: saline with Tween-80",0 of 6
CCCCCCC/C=C/C(=O)OC1C(OC2C(OC(CCCCCCC)CC(=O)OC(CCCCCCC)CC(=O)O)OC(C)C(O)C2O)OC(C)C(O)C1O (stereo unspecified),survivor count,[7],10 of 10
COc1cc(C=Nc2ccc(-c3nc(Cc4ccccc4)sc3C)cc2)ccc1N(CCCl)CCCl,T/C,"dose: 25.0 mg/kg/injection, schedule: Q01DX009 (ip), vehicle: Klucel (hydroxypropylcellulose) (HPC)",134 % of control
same,survivor count,"dose: 50.0 mg/kg/injection, schedule: Q01DX009 (ip), vehicle: Klucel (hydroxypropylcellulose) (HPC)",9 of 10
same,survivor count,[7],9 of 10 and 10 of 10
O=C1c2ccccc2C(=O)N1CC[P+](c1ccccc1)(c1ccccc1)c1ccccc1,survivor count,"dose: 25.0 mg/kg/injection, schedule: Q01DX009 (ip), vehicle: water",3 of 10
same,survivor count,[1],0 of 10
same,survivor count,[2],0 of 10
CCC1(O)CC2CN(CCc3c([nH]c4ccccc34)C(C(=O)OC)(c3cc4c(cc3OC)N(C)C3C(O)(C(=O)NCCO)C(O)C5(CC)C=CCN6CCC43C65)C2)C1 (stereo unspecified),T/C,"dose: 0.05 mg/kg/injection, schedule: Q01DX009 (ip), vehicle: saline",140 % of control
same,T/C,"dose: 0.1 mg/kg/injection, schedule: Q01DX009 (ip), vehicle: saline",140 % of control
same,T/C,"dose: 0.13 mg/kg/injection, schedule: Q01DX009 (ip), vehicle: water",126 and 140 % of control
same,T/C,"dose: 0.22 mg/kg/injection, schedule: Q01DX009 (ip), vehicle: water",149 % of control
same,T/C,"dose: 0.36 mg/kg/injection, schedule: Q01DX009 (ip), vehicle: water",136 % of control
same,T/C,"dose: 0.52 mg/kg/injection, schedule: Q04DX003 (ip), vehicle: water",125 and 137 % of control
same,T/C,"dose: 0.6 mg/kg/injection, schedule: Q01DX009 (ip), vehicle: water",126 % of control
same,survivor count,"dose: 0.6 mg/kg/injection, schedule: Q04DX003 (ip), vehicle: saline",9 of 10
same,T/C,"dose: 0.86 mg/kg/injection, schedule: Q04DX003 (ip), vehicle: water",139 and 144 % of control
same,survivor count,"dose: 1.0 mg/kg/injection, schedule: Q01DX009 (ip), vehicle: water",10 of 10
same,T/C,"dose: 1.04 mg/kg/injection, schedule: Q01DX001 (ip), vehicle: water",131 % of control
same,survivor count,"dose: 1.6 mg/kg/injection, schedule: Q01DX009 (ip), vehicle: saline",5 of 6
same,T/C,"dose: 1.73 mg/kg/injection, schedule: Q01DX001 (ip), vehicle: water",126 and 132 % of control
same,survivor count,"dose: 2.78 mg/kg/injection, schedule: Q04DX003 (ip), vehicle: saline",10 of 10
same,T/C,"dose: 2.9 mg/kg/injection, schedule: Q01DX001 (ip), vehicle: water",138 % of control
same,survivor count,"dose: 3.2 mg/kg/injection, schedule: Q01DX009 (ip), vehicle: saline",6 of 6
same,survivor count,"dose: 4.0 mg/kg/injection, schedule: Q04DX003 (ip), vehicle: water",10 of 10
same,survivor count,"dose: 4.63 mg/kg/injection, schedule: Q04DX003 (ip), vehicle: saline",4 of 10
same,survivor count,"dose: 6.4 mg/kg/injection, schedule: Q01DX009 (ip), vehicle: saline",6 of 6
same,T/C,[8],134 % of control
same,survivor count,[8],9 of 10
same,survivor count,"dose: 12.8 mg/kg/injection, schedule: Q01DX009 (ip), vehicle: saline",0 of 6
same,T/C,"dose: 389.0 micrograms/kg/injection, schedule: Q04DX003 (ip), vehicle: saline",131 % of control (2×)
same,T/C,"dose: 648.0 micrograms/kg/injection, schedule: Q04DX003 (ip), vehicle: saline",147 % of control
same,T/C,"dose: 1080.0 micrograms/kg/injection, schedule: Q04DX003 (ip), vehicle: saline",147 % of control
CNc1ccc(O)cc1,survivor count,[3],6 of 6
CCCCC(CC)COP(OCC(CC)CCCC)OCC(CC)CCCC (stereo unspecified),survivor count,"dose: 400.0 mg/kg/injection, schedule: Q04DX003 (ip), vehicle: saline with Tween-80",10 of 10
COCCNCCOC,T/C,"dose: 80.0 mg/kg/injection, schedule: Q01DX009 (ip), vehicle: saline",134 % of control
COc1cc2cc3c4cc(OC)c(OC)cc4cc[n+]3c(C)c2cc1OC (tested in a mixture with another compound),T/C,"dose: 50.0 mg/kg/injection, schedule: Q01DX009 (ip), vehicle: saline",125 % of control
same,survivor count,"dose: 64.0 mg/kg/injection, schedule: Q01DX009 (ip), vehicle: clinical formulation",10 of 10
same,survivor count,"dose: 64.0 mg/kg/injection, schedule: Q01DX009 (ip), vehicle: other",10 of 10
same,T/C,[9],125 % of control
same,survivor count,[9],10 of 10
same,survivor count,"dose: 100.0 mg/kg/injection, schedule: Q04DX003 (ip), vehicle: saline with Tween-80",10 of 10
same,survivor count,"dose: 128.0 mg/kg/injection, schedule: Q01DX009 (ip), vehicle: Klucel (hydroxypropylcellulose) (HPC)",9 of 10
same,survivor count,"dose: 128.0 mg/kg/injection, schedule: Q01DX009 (ip), vehicle: clinical formulation",1 of 10 and 8 of 10
same,survivor count,"dose: 128.0 mg/kg/injection, schedule: Q01DX009 (ip), vehicle: other","5 of 10, 7 of 10, 10 of 10"
same,survivor count,"dose: 128.0 mg/kg/injection, schedule: Q01DX009 (ip), vehicle: water",7 of 10 and 8 of 10
same,survivor count,[5],10 of 10
same,survivor count,"dose: 200.0 mg/kg/injection, schedule: Q01DX009 (ip), vehicle: water",8 of 10
same,survivor count,"dose: 250.0 mg/kg/injection, schedule: Q01DX009 (ip), vehicle: other",0 of 10
same,survivor count,"dose: 256.0 mg/kg/injection, schedule: Q01DX009 (ip), vehicle: Klucel (hydroxypropylcellulose) (HPC)",0 of 10 and 2 of 10
same,survivor count,"dose: 256.0 mg/kg/injection, schedule: Q01DX009 (ip), vehicle: clinical formulation",0 of 10
same,survivor count,"dose: 256.0 mg/kg/injection, schedule: Q01DX009 (ip), vehicle: other",0 of 10
same,survivor count,"dose: 256.0 mg/kg/injection, schedule: Q01DX009 (ip), vehicle: water",0 of 10 and 1 of 10
O=c1oc(-c2cccc([N+](=O)[O-])c2)nc2ccccc12,survivor count,"dose: 200.0 mg/kg/injection, schedule: Q01DX009 (ip), vehicle: Klucel (hydroxypropylcellulose) (HPC)",0 of 10
CN1CCC(C=C2c3ccccc3CCc3ccccc32)C1 (stereo unspecified),survivor count,"dose: 6.25 mg/kg/injection, schedule: Q01DX009 (ip), vehicle: saline",10 of 10
same,survivor count,"dose: 12.5 mg/kg/injection, schedule: Q01DX009 (ip), vehicle: saline",10 of 10
c1cc2n(n1)CCN2,survivor count,[4],10 of 10
same,survivor count,[5],10 of 10
same,survivor count,"dose: 300.0 mg/kg/injection, schedule: Q01DX009 (ip), vehicle: saline",8 of 10
same,survivor count,[6],0 of 10
same,survivor count,"dose: 800.0 mg/kg/injection, schedule: Q04DX003 (ip), vehicle: saline with Tween-80",5 of 10
C1=CC2C=CC12 (stereo unspecified),survivor count,"dose: 200.0 mg/kg/injection, schedule: Q04DX003 (ip), vehicle: saline with Tween-80",10 of 10
